According to publication doi:10.1101/593137:
Where two headings read alike, the source gives them in different places. These are yes or no findings as the source states them, for the method shown. In cells and extracts the contact can be indirect. Some entries that bind do so weakly or less than the wild type.

T1: CTCF (human) (UniProt P49711)
T1 sequence: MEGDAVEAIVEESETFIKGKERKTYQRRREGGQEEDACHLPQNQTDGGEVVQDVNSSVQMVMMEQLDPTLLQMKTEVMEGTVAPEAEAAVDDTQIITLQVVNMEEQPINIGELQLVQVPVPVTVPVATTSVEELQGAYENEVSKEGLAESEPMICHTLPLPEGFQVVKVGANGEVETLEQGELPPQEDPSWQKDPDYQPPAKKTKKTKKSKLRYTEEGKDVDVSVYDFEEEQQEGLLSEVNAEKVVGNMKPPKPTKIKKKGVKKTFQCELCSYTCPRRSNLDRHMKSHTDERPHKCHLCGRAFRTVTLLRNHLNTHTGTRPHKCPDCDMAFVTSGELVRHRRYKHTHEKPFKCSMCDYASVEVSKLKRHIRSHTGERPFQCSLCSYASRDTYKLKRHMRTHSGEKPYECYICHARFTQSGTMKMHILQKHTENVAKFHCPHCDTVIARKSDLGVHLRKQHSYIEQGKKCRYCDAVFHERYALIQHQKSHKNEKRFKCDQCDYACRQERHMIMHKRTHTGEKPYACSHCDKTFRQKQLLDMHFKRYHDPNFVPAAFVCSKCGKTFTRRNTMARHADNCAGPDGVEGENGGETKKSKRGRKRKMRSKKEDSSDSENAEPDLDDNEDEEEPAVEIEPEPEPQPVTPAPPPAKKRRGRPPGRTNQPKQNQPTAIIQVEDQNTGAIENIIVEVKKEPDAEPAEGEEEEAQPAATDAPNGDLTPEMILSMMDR

T2: CGGBP1 (human) (UniProt Q9UFW8)
T2 sequence: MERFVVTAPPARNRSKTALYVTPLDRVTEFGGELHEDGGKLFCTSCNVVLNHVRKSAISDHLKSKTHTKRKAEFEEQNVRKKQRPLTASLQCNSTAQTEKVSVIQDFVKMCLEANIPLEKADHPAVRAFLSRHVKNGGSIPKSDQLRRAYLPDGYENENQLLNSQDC

B1: CGGBP1 (protein, UniProt Q9UFW8 1-167)
chain: T2 sequence
B2: CTCF (protein, UniProt P49711 1-727)
chain: T1 sequence

Columns and labels:
[1] = molecular target: T1, CTCF (human); experiment: co-IP
[2] = molecular target: T1, CTCF (human); experiment: co-IP; remark: listed apart in the source
[3] = molecular target: T1, CTCF (human); experiment: co-IP; remark: listed apart in the source
[4] = molecular target: T1, CTCF (human); experiment: co-IP; remark: listed apart in the source
[5] = molecular target: T1, CTCF (human); experiment: co-IP; remark: listed apart in the source
[6] = molecular target: T1, CTCF (human); experiment: proximity ligation
[7] = molecular target: T2, CGGBP1 (human); experiment: co-IP
[8] = molecular target: T2, CGGBP1 (human); experiment: co-IP; remark: listed apart in the source

Row | Binder | binding [1] | binding [2] | binding [3] | binding [4] | binding [5] | binding [6] | binding [7] | binding [8]
1 | B1 | binds | binds | binds weakly | binds weakly | binds | binds |  | 
2 | B2 |  |  |  |  |  |  | binds | binds
